Reference: paper PMC7819943, “Rice protein-binding microarrays: a tool to detect cis-acting elements near promoter regions in rice”
This is one part of the list.

molecular target: T1, OsSMF1 (Oryza sativa, UniProt Q6ZLB0 1-436); assay: protein-binding microarray (RPBM); PBS, 2% BSA, 51.3 ng/ul salmon testes DNA, 50 uM zinc acetate, 200 nM TF, 25 C, 1 h; high values mean tight binding; conditions: protein: recombinant; tags: N-terminal polyhistidine and DsRed monomer fusion (pET32a); chain copies: 2; label: CyDye5-dUTP incorporated in the synthesized complementary strand; 3' TTTTT single-stranded linker to array surface; dsDNA, one strand shown
T1 sequence: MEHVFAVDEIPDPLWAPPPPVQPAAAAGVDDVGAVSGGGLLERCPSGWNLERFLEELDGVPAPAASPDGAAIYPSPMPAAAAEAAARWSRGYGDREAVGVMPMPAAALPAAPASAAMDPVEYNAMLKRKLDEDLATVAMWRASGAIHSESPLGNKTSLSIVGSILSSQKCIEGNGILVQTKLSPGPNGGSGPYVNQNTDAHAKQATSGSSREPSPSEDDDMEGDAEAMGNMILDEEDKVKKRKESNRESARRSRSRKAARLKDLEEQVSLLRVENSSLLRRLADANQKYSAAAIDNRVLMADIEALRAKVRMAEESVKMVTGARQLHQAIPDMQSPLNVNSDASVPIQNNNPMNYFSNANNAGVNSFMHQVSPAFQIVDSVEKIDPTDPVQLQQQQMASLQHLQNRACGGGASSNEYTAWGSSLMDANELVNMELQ
How it was run: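 In PBS with 2% BSA, salmon testes DNA and 50 µM zinc acetate, 200 nM protein was incubated on a custom Agilent array at 25 °C for 1 h and then washed off. The array had been made double-stranded by primer extension with Cy5-dUTP and blocked with 2% BSA. The proteins were transcription factors fused N-terminally to polyhistidine and DsRed, expressed in E. coli BL21-CodonPlus and purified on Ni–NTA. The binding signal is per-feature fluorescence intensity (arbitrary units) from an Axon 4000B scanner.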

Sequence	binding signal
TTACTGTAGCACCACATTATCAAATCATGACGCAATCAGGCGGAGTCACCTAGTGCAG	3940 fluorescence intensity (a.u.)
GATTCCTGCCTTGATTAGCATGTCACACATCGATGTCAGCCGGAGTCACCTAGTGCAG	3680 fluorescence intensity (a.u.)
CTCCCCTGTCGTGTACTCGTCCCTAGCCTAATCCATCCGCCGGAGTCACCTAGTGCAG	4210 fluorescence intensity (a.u.)
TGGCCGTGGGCCCCGACAGCCCAGTCCGACGTGTCACCGGCGGAGTCACCTAGTGCAG	15600 fluorescence intensity (a.u.)
CGTCTCTCTCCGCTCCCACGTGCTAGCACACCCAACCTCTCGGAGTCACCTAGTGCAG	4440 fluorescence intensity (a.u.)
GACCATCCAATCGTGACTCAACCTACTAACAACTGATTCCCGGAGTCACCTAGTGCAG	9320 fluorescence intensity (a.u.)
TGCAGATGGTGCTGTGAAAGCTCTTGAACAGCAGGAAGGTCGGAGTCACCTAGTGCAG	43400 fluorescence intensity (a.u.)
AACTACCAGAAATCGTCATCTGCTGACCTGGTTCAGCTAACGGAGTCACCTAGTGCAG	4860 fluorescence intensity (a.u.)
GGCCGACGTCGGCGTCGGCGTCGGCGTCGGCTTCACCTTCCGGAGTCACCTAGTGCAG	3710 fluorescence intensity (a.u.)
GAACAGCTCGTGGATACTAATCGTCGTGGAGAATTCAACACGGAGTCACCTAGTGCAG	3780 fluorescence intensity (a.u.)
TGAATGCACGTACTGGTGATGAATCTCTGATGGATGGAAGCGGAGTCACCTAGTGCAG	3210 fluorescence intensity (a.u.)
CTCGGCCCACGTCATACGGCCCATGGTCCACGGCCCACATCGGAGTCACCTAGTGCAG	14200 fluorescence intensity (a.u.)
TTTCACATGTAGATATCATCATCAAATATGTAAAGCGAAACGGAGTCACCTAGTGCAG	3480 fluorescence intensity (a.u.)
AAGGACCGGATGTAAAACTATTACCTACGTGGAGCATCATCGGAGTCACCTAGTGCAG	4160 fluorescence intensity (a.u.)
AACGTGCCACTTTACCTGACGTGATGAAACAATATTATCACGGAGTCACCTAGTGCAG	3320 fluorescence intensity (a.u.)
TGAGAGAGAATTGCATTTTATGACATGCCCATATGATGATCGGAGTCACCTAGTGCAG	17600 fluorescence intensity (a.u.)
TTATTATTAGTAAATATGTAGTTTTACGATATTTAGTCTTCGGAGTCACCTAGTGCAG	44400 fluorescence intensity (a.u.)
AATCCAACGCCCCAGGTTCCTCCACGTCACCCTCCTTCCCCGGAGTCACCTAGTGCAG	30700 fluorescence intensity (a.u.)
TTTCTTTACAGTAAATTTCACAAAACTACTGATACTTTAACGGAGTCACCTAGTGCAG	5760 fluorescence intensity (a.u.)
GCTATACTTGATGACCTACAGGCCTTGTAGTCTACCTGACCGGAGTCACCTAGTGCAG	3440 fluorescence intensity (a.u.)
CGTTAGCCCACGCATGGCCTCGTGTCACCGTCGCTTCGAGCGGAGTCACCTAGTGCAG	4620 fluorescence intensity (a.u.)

Single entries from the list.
Value of TTTCTTTACAGTAAATTTCACAAAACTACTGATACTTTAACGGAGTCACCTAGTGCAG under binding signal: 5760 fluorescence intensity (a.u.)
Value of TTACTGTAGCACCACATTATCAAATCATGACGCAATCAGGCGGAGTCACCTAGTGCAG under binding signal: 3940 fluorescence intensity (a.u.)

Later entries.

Sequence	binding signal
ATTATACGTGTCCACACGTGATGGAAGCAGCTCTCGTGGACGGAGTCACCTAGTGCAG	3500 fluorescence intensity (a.u.)
CCCTCTCCACATTCTCTTCCACCTGTGTTCCCCTTTTCTTCGGAGTCACCTAGTGCAG	3320 fluorescence intensity (a.u.)
GGTATCTCAATGACATGTAGTATCCACATGAGTCAATGACCGGAGTCACCTAGTGCAG	3320 fluorescence intensity (a.u.)
GAATTTGAAGACCGACCTCTATACCGACAGCTGACTTGGGCGGAGTCACCTAGTGCAG	19700 fluorescence intensity (a.u.)
CGCCACATGACAATGACTGACAGGCTGGCCCCACGTCCTACGGAGTCACCTAGTGCAG	5210 fluorescence intensity (a.u.)
GGTTAGGTGCCACATATTGCCACACAACATGTTAGGCATGCGGAGTCACCTAGTGCAG	3750 fluorescence intensity (a.u.)
TTCCATGTGTCCCAGTTAAAGCAATTTGTTCCTGACAACACGGAGTCACCTAGTGCAG	3720 fluorescence intensity (a.u.)
ACGGCTGTTGCCTGACGGGCTATAGTGGTTCTGTTTGACACGGAGTCACCTAGTGCAG	4460 fluorescence intensity (a.u.)
TCATCGATCTATTATGGACGTACAGTAAAAGGTCAGTCAGCGGAGTCACCTAGTGCAG	3620 fluorescence intensity (a.u.)
GCAAAGCTTCAATGACCTGACACATCCTTCCATTTCTACGCGGAGTCACCTAGTGCAG	5090 fluorescence intensity (a.u.)
TGGTGCGCTCGTTAAGCCAGCTCGGTTTATGTTAGATCATCGGAGTCACCTAGTGCAG	3210 fluorescence intensity (a.u.)
CTGTGTTAGCGTGCTCTACGTATTCGCGATAGACTTATATCGGAGTCACCTAGTGCAG	3150 fluorescence intensity (a.u.)
ACCGTACGGCTCCTCCTACTCACCCTCAAACCAACGTGTCCGGAGTCACCTAGTGCAG	5680 fluorescence intensity (a.u.)
AAATGTGGTCGAACGATGTCGTAAGCTTGCGGTAATTGTACGGAGTCACCTAGTGCAG	3400 fluorescence intensity (a.u.)
GCCTAATTACATCATGATTTGACAATGTTGTGCTACAGTACGGAGTCACCTAGTGCAG	4210 fluorescence intensity (a.u.)
CTTTCTTTCTCGTCGTCACCCAGTTGCCGCTGATGCAATTCGGAGTCACCTAGTGCAG	5070 fluorescence intensity (a.u.)
CACATACTAGCGGCTAGTTGACGTGTCTCTAATCTTTTGACGGAGTCACCTAGTGCAG	12100 fluorescence intensity (a.u.)
GATTCACCACGTTGCCCAACCTGATGTGTGCACGTCAGAACGGAGTCACCTAGTGCAG	7330 fluorescence intensity (a.u.)
GCTCCTCTACACCCACCCATGGCCGGTCGAGAAGAGAGCCCGGAGTCACCTAGTGCAG	3260 fluorescence intensity (a.u.)
CCATTGATCAATGTATACGTTTCCTATATGTGTTTATATTCGGAGTCACCTAGTGCAG	3470 fluorescence intensity (a.u.)
CTCATGAGATGCTAGCTGAATCAGCAAGGAAATCTGCTATCGGAGTCACCTAGTGCAG	4720 fluorescence intensity (a.u.)
